The whole screen tested about 330,000 compounds, of which about 7,700 (2.3%) were called active. Inconclusive means that the source gave no clear call. Such entries were picked first, then a sample of the others. The call rests on the fitted dose curve; in most records, active means well fitted inhibition curve with a large enough effect; inconclusive means small, poorly fitted or top-dose-only effect, or effect the other way; inactive means flat fitted curve, though single readings scatter. A potency beside an inconclusive call is a rough fit, not a confirmed value.
Assay: qHTS screen for small molecules that inhibit ELG1-dependent DNA repair in human embryonic kidney (HEK293T) cells expressing luciferase-tagged ELG1; further: nearly all actives have a fitted effect of over 55% in size
Conditions: HEK293T ELG1-luciferase reporter, luminescence, 16 h, DNA damage induced by 5-fluorouridine; activity change, negative = inhibition: at 46.1 µM (top of the series)
Procedure, shortened: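 Quantitative HTS, concentration-response format. 2,000 cells/well co-treated with 5-fluorouridine and compound, 16 hr in 5% CO2 at 37 °C; ONE-Glo luminescence read after 30 min.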
In the case of COc1ccc(-c2c[n+](CC(=O)c3cccs3)c3n2CCC3)cc1, the Potency is reported as active: 23.1 µM. With Fc1cc(Br)ccc1Nc1nc2ccccc2n2nnnc12 the Potency was inconclusive: 20.6 µM [activator, single point]. For O=C1c2ccccc2C(=O)N1CCN1CCc2ccccc21, the Potency was inconclusive: 25.9 µM [activator, single point]. For CC(=O)Nc1ccc(S(=O)(=O)N2CCN(c3cc(C(F)(F)F)ccn3)CC2)cc1, the Potency was inconclusive: 29.1 µM [inhibitor, single point]. In the case of Cc1ccc(C)c(N2CCN(C(=O)c3ccc(Cl)c(NC4=NC5CS(=O)(=O)CC5S4)c3)CC2)c1 (stereo not drawn), the “activity change, negative = inhibition” value is reported as inactive: 0.787%. In the case of Cc1ccc(CNC(=O)CNC(=O)c2ccc(Br)o2)cc1, the “activity change, negative = inhibition” value is reported as inactive: -0.0655%. With COC(=O)c1ccc(Oc2c(F)c(F)nc(N3CCOCC3)c2F)cc1 the Potency was inconclusive: 9.2 µM [inhibitor, partial curve, poor fit]. In the case of N#C/C(=C\c1c(Cl)cccc1Cl)c1nc2ccccc2[nH]1, the “activity change, negative = inhibition” value is reported as inactive: 0%. With Nc1cc(Nc2ccccc2)c2nonc2c1[N+](=O)[O-] the Potency was inconclusive: 16.4 µM [activator, partial curve, poor fit]. With COc1cc(NC(=O)c2cc([N+](=O)[O-])ccc2N2CCOCC2)ccc1NC(=O)c1ccco1 the Potency was inconclusive: 29.1 µM [inhibitor, single point]. In the case of Cc1ccc(-c2cc3c(N=O)c4ccccc4c-3n[nH]2)cc1, the Potency is reported as inconclusive: 0.116 µM [activator, full curve, poor fit]. With O=C(CN(c1ccc(Cl)cc1)S(=O)(=O)c1ccc(Cl)c([N+](=O)[O-])c1)NCCc1ccccc1 the Potency was inconclusive: 23.1 µM [activator, partial curve, poor fit]. In the case of CCCCc1nc2ccc(S(=O)(=O)O)cc2[nH]1, the “activity change, negative = inhibition” value is reported as inactive: -15.5%. With c1ccc(-c2cc3c(NCC4COc5ccccc5O4)ncnc3s2)cc1 (stereo not drawn) the Potency was active: 20.6 µM. For O=C(O)c1cccc(S(=O)(=O)N2CCC(n3nnc4cc(C(F)(F)F)ccc43)CC2)c1, the Potency was inconclusive: 2.31 µM [activator, full curve, poor fit]. With CSc1nsc(SC)c1NC(=O)N1CCCCC1 the Potency was inconclusive: 25.9 µM [activator, partial curve, poor fit]. In the case of COc1ccc(C2SCC(=O)N2c2nnc(C34CC5CC(CC(C5)C3)C4)s2)cc1 (stereo not drawn), the “activity change, negative = inhibition” value is reported as inactive: -14.1%. For COc1cc(OC)c2c(-c3ccccc3)cc(=O)oc2c1C(CC(=O)N1CCOCC1)c1ccc(N(C)C)cc1 (stereo not drawn), the Potency was inconclusive: 10.3 µM [inhibitor, partial curve, poor fit].

Reference: PubChem BioAssay AID504467 (National Center for Advancing Translational Sciences (NCATS), 2011)
On the % scale 0 is the no-effect control and ±100 the full control effect; potency means the concentration at half of the fitted maximal effect.
